Test results from PubChem BioAssay (NCATS).
The list shows a part of the results. The main result of the screen is listed elsewhere. These columns were measured beside it and carry no call. Most of these compounds were active or inconclusive in the main read-out, so they are no random draw. The note in brackets gives the kind of curve behind each potency; many fits are weak.

How the values were obtained:
[1] = S16 Schwann cell PMP22 intronic element beta-lactamase assay (AID 624044); conditions: S16 rat Schwann cells, PMP22 element beta-lactamase FRET, 24 h; measured here: 460 nm blue channel
Outline: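 Rat S16 Schwann cells with beta-Lac driven by a PMP22 intronic element, compound-treated 24 h at 37 °C. LiveBLAzer FRET B/G read: 460 nm normalized to potassium clavulanate vs DMSO; 535 nm FRET as viability; concentration-effect curves classified.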

[2] = qHTS assay for small molecule antagonists of peroxisome proliferator-activated receptor gamma signaling (AID 588537); conditions: HEK293 PPARg-UAS-bla, beta-lactamase ratio, antagonist mode; measured here: W460 blue channel
Outline: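 Antagonist mode, beta-lactamase reporter in HEK293; charcoal/dextran FBS 1%; 3000 cells/well, 37 C 6-6.5 h; cpd titration + rosiglitazone 50 nM final, 16 h 37 C; CCF4, 2 h RT; 460/530 nm; Hill fit → IC50, efficacy.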

Structure (SMILES) | AC50 [1] | AC50 [2]
C=C[C@@]1(C)CC(=O)[C@]2(O)[C@@]3(C)[C@@H](O)CCC(C)(C)[C@@H]3[C@H](O)[C@H](OC(C)=O)[C@@]2(C)O1 | 0.562 µM [falling, full curve] | –
OCC(CO)(CBr)CBr | – | 70.8 µM [rising, single point]
NC(=O)c1ccccc1O | – | 70.8 µM [rising, single point]
CCCCCC1CCC(=O)O1 (centres undefined) | – | 0.0355 µM [falling, full curve, poor fit]
CC(CCC(=O)O)(c1ccc(O)cc1)c1ccc(O)cc1 | – | 50.1 µM [rising, single point]
C=Cc1ccccc1Br | – | 44.7 µM [falling, single point]
CC(C)CCOC(=O)/C=C/c1ccccc1 | – | 50.1 µM [rising, single point]
CCCCCC/C(C=O)=C\c1ccccc1 | – | 50.1 µM [rising, single point]
CC(=O)Nc1ccc(C)cc1 | – | 50.1 µM [rising, single point]
Cc1c(N)cccc1[N+](=O)[O-] | – | 50.1 µM [falling, partial curve, poor fit]
CC(C)O | – | 8.91 µM [falling, partial curve, poor fit]
O=C1CCC(=O)O1 | – | 39.8 µM [rising, single point]
C=C(C)C(=O)OCC(C)C | – | 50.1 µM [falling, single point]
CN(C)Cc1cc(CN(C)C)c(O)c(CN(C)C)c1 | – | 0.0178 µM [falling, full curve, poor fit]

Retrieved by structure from the entries so far (2):
Structure (SMILES) | AC50 [1] | AC50 [2]
CC(CCC(=O)O)(c1ccc(O)cc1)c1ccc(O)cc1 | – | 50.1 µM [rising, single point]
C=C[C@@]1(C)CC(=O)[C@]2(O)[C@@]3(C)[C@@H](O)CCC(C)(C)[C@@H]3[C@H](O)[C@H](OC(C)=O)[C@@]2(C)O1 | 0.562 µM [falling, full curve] | –
